The test addresses T1, full length human PSGL-1 (SEQ ID NO: 3) expressed on heparan sulfate-deficient CHO cells (human) (UniProt Q14242).
T1 sequence: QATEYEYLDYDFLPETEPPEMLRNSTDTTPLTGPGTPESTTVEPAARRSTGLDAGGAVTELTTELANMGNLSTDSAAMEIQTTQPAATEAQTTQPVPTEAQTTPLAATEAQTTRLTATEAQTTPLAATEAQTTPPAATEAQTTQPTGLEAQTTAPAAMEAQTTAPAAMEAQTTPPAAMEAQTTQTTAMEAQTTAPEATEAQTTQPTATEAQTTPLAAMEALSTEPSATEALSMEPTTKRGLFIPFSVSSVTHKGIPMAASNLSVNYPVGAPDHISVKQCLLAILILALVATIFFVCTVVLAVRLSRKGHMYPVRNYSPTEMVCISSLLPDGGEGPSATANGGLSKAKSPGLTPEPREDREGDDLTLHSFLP
The experiment in a line: VISTA-Fc on CHO-PSGL-1 cells, pH 6.0.

These are yes or no findings as the source states them, for the method shown. Some entries that bind do so weakly or less than the wild type. Sequences can lack the tags named with a protein.

B1: human VISTA-Fc H2R mutant (histidines 153-155 replaced by arginine) (Fc fusion, not shown: a dimerising Fc or GST)
chain: FKVATPYSLYVCPEGQNVTLTCRLLGPVDKGHDVTFYKTWYRSSRGEVQTCSERRPIRNLTFQDLHLHHGGHQAANTSHDLAQRHGLESASDHHGNFSITMRNLTLLDSGLYCCLVVEIRRRRSEHRVHGAMELQVQTGKDAPSNCVVYPSSSQDSENITAA
For the molecule B1, the binding entry is “binds”.

(Values after patent US20230192860A1.)
